Measured values: patent US7838676B2, “Beta-secretase modulators and methods of use” (Amgen Inc., priority 2005, dated 2010)
Some entries share one result that the patent states for a list of compounds.

The chains behind the UniProt entries cited, without tags or fusion partners. Residues count along the entry.
UniProt P56817, 46-501, species assumed: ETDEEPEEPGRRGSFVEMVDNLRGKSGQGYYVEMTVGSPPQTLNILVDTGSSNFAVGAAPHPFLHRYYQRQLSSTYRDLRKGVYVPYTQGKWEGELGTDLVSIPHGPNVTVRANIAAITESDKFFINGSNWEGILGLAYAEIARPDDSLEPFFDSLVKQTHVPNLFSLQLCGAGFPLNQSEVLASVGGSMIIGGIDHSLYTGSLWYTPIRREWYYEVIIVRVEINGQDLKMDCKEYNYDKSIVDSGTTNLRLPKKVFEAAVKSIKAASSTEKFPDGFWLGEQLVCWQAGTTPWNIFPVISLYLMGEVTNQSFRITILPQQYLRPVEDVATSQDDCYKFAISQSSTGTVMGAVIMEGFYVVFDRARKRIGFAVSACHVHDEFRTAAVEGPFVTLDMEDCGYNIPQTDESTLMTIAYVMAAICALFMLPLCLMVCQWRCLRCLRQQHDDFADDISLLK

Biological target: BACE (Homo sapiens, UniProt P56817)
Test: In Vitro Enzymatic BACE FRET (Fluorescence Resonance Energy Transfer) Assay
Assay type: biochemical
Conditions: enzyme 0.2 nM, FRET substrate 50 nM, pH 4.2

| Molecule | IC50 |
| --- | --- |
| CCc1ccc2c(c1)[C@@H](NC[C@@H](O)[C@H](Cc1ccccc1)NC(=O)c1cc(-c3ccccc3)cc(C3CCCC3)c1)CC1(CCCC1)O2 [Example 8, 3-cyclopentyl-N-((2S,3R)-4-((S)-6-ethyl-2,2-spirocyclopentylchroman-4-ylamino)-3-hydroxy-1-phenylbutan-2-yl)-5-(phenyl)benzamide] | ≤ 5 µM |
| CC1(C)Cc2ccc(O[C@H]3CCOC3)cc2[C@@H](NC[C@@H](O)[C@H](Cc2ccccc2)NC(=O)c2cccc(N3CCCC3=O)c2F)C1 [Example 104, N-((1S,2R)-3-(((1S)-3,3-dimethyl-7-((3S)-tetrahydro-3-furanyloxy)-1,2,3,4-tetrahydro-1-naphthalenyl)amino)-2-hydroxy-1-(phenylmethyl)propyl)-2-fluoro-3-(2-oxo-1-pyrrolidinyl)benzamide] | ≤ 5 µM |
| Cn1ccnc1C(=O)N[C@@H](Cc1ccccc1)[C@H](O)CN[C@H]1CC2(CCC2)Oc2ccc(Br)cc21 [Example 164, N-((1S,2R)-3-(((4S)-6-bromo-3,4-dihydrospiro[chromene-2,1′-cyclobutan]-4-yl)amino)-2-hydroxy-1-(phenylmethyl)propyl)-1-methyl-1H-imidazole-2-carboxamide] | ≤ 5 µM |
| CCc1ccc2c(c1)[C@@H](NC[C@@H](O)[C@H](Cc1ccccc1)NC(=O)c1cc([C@H]3CCCCN3C(C)=O)cc(N3CCCC3)c1)CC1(CCCC1)O2 [Example 13, 3-((2R)-1-acetyl-2-piperidinyl)-N-((1S,2R)-3-(((4S)-6-ethyl-3,4-dihydrospiro[chromene-2,1′-cyclopentan]-4-yl)amino)-2-hydroxy-1-(phenylmethyl)propyl)-5-(1-pyrrolidinyl) benzamide] | ≤ 5 µM |
| C[C@@H](NC(=O)c1cc(C(=O)N[C@@H](Cc2ccccc2)[C@@H](O)CN[C@H]2CC3(CCC3)Oc3ncc(CC(C)(C)C)cc32)cc(N(C)S(C)(=O)=O)c1)c1ccccc1 [Example 68, N-((1S,2S)-3-(((4′S)-6′-(2,2-dimethylpropyl)-3′,4′-dihydrospiro[cyclobutane-1,2′-pyrano[2,3-b]pyridin]-4′-yl)amino)-2-hydroxy-1-(phenylmethyl)propyl)-5-(methyl(methylsulfonyl)amino)-N′-((1R)-1-phenylethyl)-1,3-benzenedicarboxamide] | ≤ 5 µM |
| CCc1ccc2c(c1)[C@@H](NC[C@@H](O)[C@H](Cc1ccccc1)NC(=O)c1cc(-c3cccs3)nc3ccccc13)CC1(CCC1)O2 [Example 205, N-((1S,2R)-3-(((4S)-6-ethyl-3,4-dihydrospiro[chromene-2,1′-cyclobutan]-4-yl)amino)-2-hydroxy-1-(phenylmethyl)propyl)-2-(2-thienyl)-4-quinolinecarboxamide] | ≤ 5 µM |
| CC1CCCN(c2cc(C(=O)NC(Cc3ccccc3)C(O)CNC3CC4(CCCC4)Oc4ccc(F)cc43)ccn2)C1 [Example 107, N-((2S,3R)-4-((S)-6-fluoro-3,4-dihydrospiro[chromene-2,1′-cyclopentan]-4-yl)amino)-3-hydroxy-1-phenylbutan-2-yl)-2-(3-methylpiperidin-1-yl)isonicotinamide] | ≤ 5 µM |
| CC1(C)Oc2ccc(Br)cc2[C@H](NC[C@@H](O)[C@H](Cc2ccccc2)NC(=O)c2ccc(F)c(N3CCCC3=O)c2)[C@H]1O [Example 74, N-((1S,2R)-3-(((3R,4S)-6-bromo-3-hydroxy-2,2-dimethyl-3,4-dihydro-2H-chromen-4-yl)amino)-2-hydroxy-1-(phenylmethyl)propyl)-4-fluoro-3-(2-oxo-1-pyrrolidinyl)benzamide] | ≤ 5 µM |
| CCc1ccc2c(c1)[C@@H](NC[C@@H](O)[C@H](Cc1ccccc1)NC(=O)c1cc(C3CCCC3)cc(N3CCCC3=O)c1)CC1(CCCC1)O2 [Example 23, 3-cyclopentyl-N-((2S,3R)-4-((S)-6-ethyl-2,2-cyclopentylchroman-4-ylamino)-3-hydroxy-1-phenylbutan-2-yl)-5-(2-oxopyrrolidin-1-yl)benzamide] | ≤ 5 µM |
| N-((2S,3R)-3-hydroxy-4-((S)-6-triflouromethoxy-2,2-spirocyclopentylchroman-4-ylamino)-1-phenylbutan-2-yl)-2-(3-methylpiperidin-1-yl)isonicotinamide [Example 81] | ≤ 5 µM |
| CCc1ccc2c(c1)C(NCC(O)C(Cc1ccccc1)NC(=O)c1cc(-c3ccc(F)cc3)nc(N3CCCC(C)C3)c1)CC1(CCCC1)O2 [Example 191, N-((2S,3R)-4-((S)-6-ethyl-2,2-spirocyclopentylchroman-4-ylamino)-3-hydroxy-1-phenylbutan-2-yl)-2-(4-fluorophenyl)-6-(3-methylpiperidin-1-yl)isonicotinamide] | ≤ 5 µM |
| N#Cc1ccccc1-c1cc(C(=O)N[C@@H](Cc2ccccc2)[C@H](O)CN[C@H]2CC3(CCC3)Oc3ncc(Br)cc32)cc2c1ccn2CCc1ccccc1 [Example 57, N-((1S,2R)-3-(((4′S)-6′-bromo-3′,4′-dihydrospiro[cyclobutane-1,2′-pyrano[2,3-b]pyridin]-4′-yl)amino)-2-hydroxy-1-(phenylmethyl)propyl)-4-(2-cyanophenyl)-1-(2-phenylethyl)-1H-indole-6-carboxamide] | ≤ 5 µM |
| 2-((4aR)-4a,8a-dimethyl-octahydroisoquinolin-2(1H)-yl)-N-((2S,3R)-4-((S)-6-ethyl-2,2-spirocyclopentylchroman-4-ylamino)-3-hydroxy-1-phenylbutan-2-yl)-6-methylisonicotinamide [Example 187] | ≤ 5 µM |
| CCc1ccc2c(c1)[C@@H](NC[C@@H](O)[C@H](Cc1ccccc1)NC(=O)c1cccc(N3CCCC3=O)c1F)C[C@]1(CCOC1)O2 [Example 38, N-((1S,2R)-3-(((2R,4S)-6-ethyl-3,4,4′,5′-tetrahydrospiro[chromene-2,3′-furan]-4-yl)amino)-2-hydroxy-1-(phenylmethyl)propyl)-2-fluoro-3-(2-oxo-1-pyrrolidinyl)benzamide] | ≤ 5 µM |
| CCc1ccc2c(c1)[C@@H](NC[C@@H](O)[C@H](Cc1ccccc1)NC(=O)c1cc(C3CCCC3)nc([C@H]3CCCN3C(C)=O)c1)CC1(CCCC1)O2 [Example 156, 2-((2R)-1-acetyl-2-pyrrolidinyl)-6-cyclopentyl-N-((1S,2R)-3-(((4S)-6-ethyl-3,4-dihydrospiro[chromene-2,1′-cyclopentan]-4-yl)amino)-2-hydroxy-1-(phenylmethyl)propyl)-4-pyridinecarboxamide] | ≤ 5 µM |
| CCc1ccc2c(c1)[C@@H](NC[C@@H](O)[C@H](Cc1ccccc1)NC(=O)c1cc(C3CCCC3)nc([C@H]3CCCN3S(C)(=O)=O)c1)CC1(CCCC1)O2 [Example 155, 2-cyclopentyl-N-((1S,2R)-3-(((4S)-6-ethyl-3,4-dihydrospiro[chromene-2,1′-cyclo-pentan]-4-yl)amino)-2-hydroxy-1-(phenyl-methyl)propyl)-6-((2R)-1-(methyl-sulfonyl)-2-pyrrolidinyl)-4-pyridinecarboxamide] | ≤ 5 µM |
| CCc1ccc2c(c1)[C@@H](NC[C@@H](O)[C@H](Cc1ccccc1)NC(=O)c1cc(-c3ccccn3)nc(C3CCCCC3)c1)CC1(CCCC1)O2 [Example 149, 6-cyclohexyl-N-((1S,2R)-3-(((4S)-6-ethyl-3,4-dihydrospiro[chromene-2,1′-cyclopentan]-4-yl)amino)-2-hydroxy-1-(phenylmethyl)propyl)-2,2′-bipyridine-4-carboxamide] | ≤ 5 µM |
| CCc1ccc2c(c1)C(NCC(O)C(Cc1ccccc1)NC(=O)c1cc(C3CCCC3)cc(C3CCCN3C(C)=O)c1)CC1(CCCC1)O2 [Example 10, 3-(1-acetylpyrrolidin-2-yl)-5-cyclopentyl-N-((2S,3R)-4-((S)-6-ethyl-2,2-spirocyclopentylchroman-4-ylamino)-3-hydroxy-1-phenylbutan-2-yl)benzamide] | ≤ 5 µM |
| CCc1ccc2c(c1)[C@@H](NC[C@@H](O)[C@H](Cc1ccccc1)NC(=O)c1cc(C)nc(N3CCC(c4ccccc4)CC3)c1)CC1(CCCC1)O2 [Example 189, N-((1S,2R)-3-(((4S)-6-ethyl-3,4-dihydrospiro[chromene-2,1′-cyclopentan]-4-yl)amino)-2-hydroxy-1-(phenylmethyl)propyl)-2-methyl-6-(4-phenyl-1-piperidinyl)-4-pyridinecarboxamide] | ≤ 5 µM |
| CCc1ccc2c(c1)[C@@H](NC[C@@H](O)[C@H](Cc1cccc(C#N)c1)NC(=O)c1cccc(N3CCCC3=O)c1F)CC1(CCC1)O2 [Example 39, N-((1S,2R)-1-((3-cyanophenyl)methyl)-3-3(((4S)-6-ethyl-,4-dihydrospiro[chromene-2,1′-cyclobutan]-4-yl)amino)-2-hydroxypropyl)-2-fluoro-3-(2-oxo-1-pyrrolidinyl)benzamide] | ≤ 5 µM |
| O=C(N[C@@H](Cc1ccccc1)[C@H](O)CN[C@H]1CC2(CCC2)Oc2ccc(C(F)(F)F)cc21)c1ccc(F)c(N2CCCC2=O)c1 [Example 121, 4-fluoro-N-((1S,2R)-2-hydroxy-1-(phenylmethyl)-3-(((4S)-6-(trifluoromethyl)-3,4-dihydrospiro[chromene-2,1′-cyclobutan]-4-yl)amino)propyl)-3-(2-oxo-1-pyrrolidinyl)benzamide] | ≤ 5 µM |
| N#Cc1cccc(C[C@H](NC(=O)c2cccc(N3CCCC3=O)c2F)[C@H](O)CN[C@H]2CC3(CCC3)Oc3ccc(N4CCOCC4)cc32)c1 [Example 75, N-((1S,2R)-1-((3-cyanophenyl)methyl)-2-hydroxy-3-(((4S)-6-(4-morpholinyl)-3,4-dihydrospiro[chromene-2,1′-cyclobutan]-4-yl)amino)propyl)-2-fluoro-3-(2-oxo-1-pyrrolidinyl)benzamide] | ≤ 5 µM |
| Cc1cc(C(=O)N[C@@H](Cc2ccccc2)[C@H](O)CN[C@H]2CC3(CCCC3)Oc3ccc(Br)cc32)cc(N2CCC[C@@H](C)C2)n1 [Example 113, N-((1S,2R)-3-(((4S)-6-bromo-3,4-dihydrospiro[chromene-2,1′-cyclopentan]-4-yl)amino)-2-hydroxy-1-(phenylmethyl)propyl)-2-methyl-6-((3R)-3-methyl-1-piperidinyl)-4-pyridinecarboxamide] | ≤ 5 µM |
| CCc1ccc2c(c1)[C@@H](NC[C@@H](O)[C@H](Cc1ccccc1)NC(=O)c1cc(OC)nc(N3CCCCC3)c1)CC1(CCCC1)O2 [Example 176, N-((2S,3R)-4-((S)-6-ethyl-2,2-spirocyclopentylchroman-4-ylamino)-3-hydroxy-1-phenylbutan-2-yl)-2-methoxy-6-(piperidin-1-yl)isonicotinamide] | ≤ 5 µM |
